Results from US20180185408A1, “ANTIFUNGAL NYLON-3 POLYMERS AND COMBINATION THERAPY USING THEM TO TREAT FUNGAL INFECTIONS” (priority 2016, published 2018).
Some results were stated once for a whole list of compounds, not compound by compound.

Tested on: Aspergillus fumigatus
Test: Checkerboard microdilution synergy (FIC)
Type: cell-based
Settings: azole-sensitive strains (AF293 and CEA10)

Structure (SMILES)	increase in efficacy in the presence of copolymer [fold]
CC[C@@H]([C@H](C)O)n1ncn(-c2ccc(N3CCN(c4ccc(OC[C@@H]5CO[C@@](Cn6cncn6)(c6ccc(F)cc6F)C5)cc4)CC3)cc2)c1=O [Posaconazole, posaconazole]	< 7
CCC(C)n1ncn(-c2ccc(N3CCN(c4ccc(OCC5COC(Cn6cncn6)(c6ccc(Cl)cc6Cl)O5)cc4)CC3)cc2)c1=O (centres unmarked) [Itraconazole, itraconazole]	< 7
